Measurements published in publication PMC7642583.
These are yes or no findings as the source states them, for the method shown. In cells and extracts the contact can be indirect. Some results given as binding are weak or reduced against the parent protein; the word gives no strength. For part of these data: Sequences can lack the tags named with a protein. One block for each molecule: values may come before it.

Protein sequences, listed by entry. Tags and fused reporters are not part of them. Lines headed by an entry give the natural chain unless they say otherwise; changes in a name come on top.
UniProt Q12692: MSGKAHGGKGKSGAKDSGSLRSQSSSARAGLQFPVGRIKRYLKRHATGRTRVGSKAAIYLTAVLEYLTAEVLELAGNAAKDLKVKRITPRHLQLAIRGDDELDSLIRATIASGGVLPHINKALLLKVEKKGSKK

What was measured:
Mps3-GFP (S. cerevisiae) = target: T1, Mps3-GFP (S. cerevisiae) (UniProt P47069); assay: co-IP; GFP-Trap magnetic agarose on whole cell extracts of meiotic cells (16 h after induction), wild type and swr1Δ; 20 mM HEPES-NaOH pH 7.5, 300 mM NaCl, 0.5% Triton X-100, 3 h at 4°C; Western blot of the immunoprecipitates
T1 sequence: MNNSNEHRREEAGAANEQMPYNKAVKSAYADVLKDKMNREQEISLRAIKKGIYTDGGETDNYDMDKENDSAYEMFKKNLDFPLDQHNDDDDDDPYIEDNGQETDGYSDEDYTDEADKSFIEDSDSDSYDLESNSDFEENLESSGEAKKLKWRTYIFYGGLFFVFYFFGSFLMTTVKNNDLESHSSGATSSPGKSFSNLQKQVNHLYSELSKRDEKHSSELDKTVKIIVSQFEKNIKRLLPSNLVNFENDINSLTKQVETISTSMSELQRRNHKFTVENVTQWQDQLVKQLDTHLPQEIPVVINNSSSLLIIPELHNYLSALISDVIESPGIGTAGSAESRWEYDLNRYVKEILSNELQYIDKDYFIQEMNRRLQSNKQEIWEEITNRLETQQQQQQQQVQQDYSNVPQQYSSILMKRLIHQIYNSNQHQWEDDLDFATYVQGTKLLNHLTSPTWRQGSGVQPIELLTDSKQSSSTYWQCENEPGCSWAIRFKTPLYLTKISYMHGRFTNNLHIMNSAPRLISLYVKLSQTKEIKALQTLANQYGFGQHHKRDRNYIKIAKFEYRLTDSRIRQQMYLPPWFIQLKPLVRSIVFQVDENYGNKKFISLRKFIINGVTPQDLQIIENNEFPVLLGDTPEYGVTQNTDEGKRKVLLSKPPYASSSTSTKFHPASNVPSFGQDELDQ

[1] = target: H2A.Z-GFP (S. cerevisiae) (UniProt Q12692); assay: as above

binding (Mps3-GFP (S. cerevisiae)): binds
Molecule: H2A.Z (from UniProt Q12692 1-134)

binding (Mps3-GFP (S. cerevisiae)): no binding
Molecule: H3 (from UniProt P61830 1-136)

binding [1]: binds
B1: Mps3-3HA (protein, UniProt P47069 1-682)
chain: T1 sequence
